The list shows a part of the results.
How the values were obtained:
Assay in all cases: log2 fold change, soluble protein after heating vs DMSO (PISA); higher = thermal stabilisation; K562 cells, 10 uM, 30 min; active = over 0.2 and 3.5 SD of the protein, either way, in both replicates (recomputed)
[1] = compound: CC[C@@H]1C(=O)N(C)c2cnc(Nc3ccc(C(=O)NC4CCN(C)CC4)cc3OC)nc2N1C1CCCC1
How it was run: (§1)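 K562 cells at 2×10^6 cells/mL were given 10 μM compound for 30 min. Aliquots then went through 3 min of heating across 48°C-58°C, were pooled, and were extracted in PBS with 0.5% NP-40 at 4°C, and the supernatant after 21,000xg for 90 min was quantified by TMTpro 16plex LC-MS/MS with channel sums equalised. Thermal stability relative to control samples, from duplicates, is given as log2 fold change.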

Protein sequences, listed by entry. Tags and fused reporters are not part of them. Lines headed by an entry give the natural chain unless they say otherwise; changes in a name come on top.
UniProt Q96FZ2: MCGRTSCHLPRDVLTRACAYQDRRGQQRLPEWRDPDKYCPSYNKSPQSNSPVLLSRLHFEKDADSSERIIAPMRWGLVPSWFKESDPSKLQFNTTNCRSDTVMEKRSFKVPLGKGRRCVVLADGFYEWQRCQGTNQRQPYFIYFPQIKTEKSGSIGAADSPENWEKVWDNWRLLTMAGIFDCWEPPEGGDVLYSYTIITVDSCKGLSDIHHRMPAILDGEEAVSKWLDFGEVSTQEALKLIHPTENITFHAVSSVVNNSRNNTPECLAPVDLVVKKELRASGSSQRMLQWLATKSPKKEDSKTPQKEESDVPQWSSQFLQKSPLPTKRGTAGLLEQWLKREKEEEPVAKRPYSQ
UniProt P30519: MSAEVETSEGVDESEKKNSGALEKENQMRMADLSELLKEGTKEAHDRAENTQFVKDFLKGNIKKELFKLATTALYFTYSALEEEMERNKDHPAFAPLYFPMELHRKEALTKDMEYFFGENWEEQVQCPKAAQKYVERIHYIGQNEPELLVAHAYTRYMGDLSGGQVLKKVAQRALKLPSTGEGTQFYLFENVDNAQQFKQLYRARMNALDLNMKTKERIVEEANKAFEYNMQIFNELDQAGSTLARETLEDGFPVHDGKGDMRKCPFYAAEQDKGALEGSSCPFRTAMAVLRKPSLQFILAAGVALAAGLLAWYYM
UniProt Q92598: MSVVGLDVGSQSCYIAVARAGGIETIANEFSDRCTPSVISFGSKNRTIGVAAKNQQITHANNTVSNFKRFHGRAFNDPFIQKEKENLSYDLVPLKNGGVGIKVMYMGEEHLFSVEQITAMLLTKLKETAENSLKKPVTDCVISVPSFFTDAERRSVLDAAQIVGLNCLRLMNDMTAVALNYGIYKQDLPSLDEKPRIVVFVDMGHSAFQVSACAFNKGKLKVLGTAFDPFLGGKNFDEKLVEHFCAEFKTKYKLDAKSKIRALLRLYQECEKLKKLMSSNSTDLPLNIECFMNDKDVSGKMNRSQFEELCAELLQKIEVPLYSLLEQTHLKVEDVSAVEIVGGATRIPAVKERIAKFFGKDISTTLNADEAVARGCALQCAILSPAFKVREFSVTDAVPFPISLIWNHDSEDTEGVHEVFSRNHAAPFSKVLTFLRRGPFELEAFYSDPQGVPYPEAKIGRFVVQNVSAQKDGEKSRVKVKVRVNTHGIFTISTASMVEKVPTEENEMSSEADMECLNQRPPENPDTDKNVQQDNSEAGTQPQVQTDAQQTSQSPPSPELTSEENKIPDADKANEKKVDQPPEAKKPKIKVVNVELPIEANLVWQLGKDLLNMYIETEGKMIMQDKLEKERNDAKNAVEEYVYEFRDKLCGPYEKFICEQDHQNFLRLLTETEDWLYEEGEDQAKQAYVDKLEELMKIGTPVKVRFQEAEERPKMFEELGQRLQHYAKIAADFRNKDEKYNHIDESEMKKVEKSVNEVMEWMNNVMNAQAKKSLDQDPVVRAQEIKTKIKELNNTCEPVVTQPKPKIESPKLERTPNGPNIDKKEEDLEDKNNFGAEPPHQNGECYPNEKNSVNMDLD
UniProt Q2TB90: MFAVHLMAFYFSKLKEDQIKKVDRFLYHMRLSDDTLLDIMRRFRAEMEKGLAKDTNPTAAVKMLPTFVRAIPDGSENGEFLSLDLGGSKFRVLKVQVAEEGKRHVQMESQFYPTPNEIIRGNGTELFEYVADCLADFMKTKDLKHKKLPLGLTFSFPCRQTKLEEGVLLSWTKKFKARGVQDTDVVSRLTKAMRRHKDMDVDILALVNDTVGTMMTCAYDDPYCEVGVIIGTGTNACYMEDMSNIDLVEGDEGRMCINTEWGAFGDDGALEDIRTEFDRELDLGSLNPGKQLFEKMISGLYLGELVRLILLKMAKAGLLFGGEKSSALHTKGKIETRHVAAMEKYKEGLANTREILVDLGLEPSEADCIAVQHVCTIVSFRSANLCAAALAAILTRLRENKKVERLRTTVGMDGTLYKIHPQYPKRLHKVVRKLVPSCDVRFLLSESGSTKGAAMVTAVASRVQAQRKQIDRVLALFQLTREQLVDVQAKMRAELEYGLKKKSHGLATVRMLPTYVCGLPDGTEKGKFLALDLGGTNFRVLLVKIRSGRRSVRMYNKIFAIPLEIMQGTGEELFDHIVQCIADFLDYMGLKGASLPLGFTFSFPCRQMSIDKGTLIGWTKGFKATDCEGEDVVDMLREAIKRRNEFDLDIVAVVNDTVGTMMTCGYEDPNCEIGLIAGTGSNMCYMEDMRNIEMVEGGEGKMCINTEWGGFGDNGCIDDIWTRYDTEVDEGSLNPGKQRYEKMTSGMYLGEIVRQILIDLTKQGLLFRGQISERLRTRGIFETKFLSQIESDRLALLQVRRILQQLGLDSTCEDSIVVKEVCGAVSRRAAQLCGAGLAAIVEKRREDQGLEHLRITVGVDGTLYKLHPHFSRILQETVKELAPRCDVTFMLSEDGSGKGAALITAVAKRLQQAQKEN
UniProt Q9BW71: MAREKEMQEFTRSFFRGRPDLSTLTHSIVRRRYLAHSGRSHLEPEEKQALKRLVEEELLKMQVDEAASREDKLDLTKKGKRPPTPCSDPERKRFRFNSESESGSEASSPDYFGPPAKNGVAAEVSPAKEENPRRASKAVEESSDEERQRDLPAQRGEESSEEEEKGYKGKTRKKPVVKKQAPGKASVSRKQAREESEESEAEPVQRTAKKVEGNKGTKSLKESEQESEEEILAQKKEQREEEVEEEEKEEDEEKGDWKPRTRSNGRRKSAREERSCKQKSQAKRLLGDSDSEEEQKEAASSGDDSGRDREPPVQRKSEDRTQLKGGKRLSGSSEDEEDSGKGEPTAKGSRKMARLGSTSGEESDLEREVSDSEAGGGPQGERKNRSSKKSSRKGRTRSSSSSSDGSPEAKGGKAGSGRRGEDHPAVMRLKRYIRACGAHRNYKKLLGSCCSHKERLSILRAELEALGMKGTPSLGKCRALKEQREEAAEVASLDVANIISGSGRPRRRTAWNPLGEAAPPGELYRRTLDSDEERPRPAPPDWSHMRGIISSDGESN
UniProt P00492: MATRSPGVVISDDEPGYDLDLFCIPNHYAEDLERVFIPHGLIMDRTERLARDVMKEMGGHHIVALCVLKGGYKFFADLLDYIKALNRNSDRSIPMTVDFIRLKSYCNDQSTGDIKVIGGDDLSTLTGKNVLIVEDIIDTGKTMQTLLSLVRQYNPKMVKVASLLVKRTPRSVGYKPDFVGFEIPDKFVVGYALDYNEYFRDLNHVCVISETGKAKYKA
UniProt Q9BUJ2: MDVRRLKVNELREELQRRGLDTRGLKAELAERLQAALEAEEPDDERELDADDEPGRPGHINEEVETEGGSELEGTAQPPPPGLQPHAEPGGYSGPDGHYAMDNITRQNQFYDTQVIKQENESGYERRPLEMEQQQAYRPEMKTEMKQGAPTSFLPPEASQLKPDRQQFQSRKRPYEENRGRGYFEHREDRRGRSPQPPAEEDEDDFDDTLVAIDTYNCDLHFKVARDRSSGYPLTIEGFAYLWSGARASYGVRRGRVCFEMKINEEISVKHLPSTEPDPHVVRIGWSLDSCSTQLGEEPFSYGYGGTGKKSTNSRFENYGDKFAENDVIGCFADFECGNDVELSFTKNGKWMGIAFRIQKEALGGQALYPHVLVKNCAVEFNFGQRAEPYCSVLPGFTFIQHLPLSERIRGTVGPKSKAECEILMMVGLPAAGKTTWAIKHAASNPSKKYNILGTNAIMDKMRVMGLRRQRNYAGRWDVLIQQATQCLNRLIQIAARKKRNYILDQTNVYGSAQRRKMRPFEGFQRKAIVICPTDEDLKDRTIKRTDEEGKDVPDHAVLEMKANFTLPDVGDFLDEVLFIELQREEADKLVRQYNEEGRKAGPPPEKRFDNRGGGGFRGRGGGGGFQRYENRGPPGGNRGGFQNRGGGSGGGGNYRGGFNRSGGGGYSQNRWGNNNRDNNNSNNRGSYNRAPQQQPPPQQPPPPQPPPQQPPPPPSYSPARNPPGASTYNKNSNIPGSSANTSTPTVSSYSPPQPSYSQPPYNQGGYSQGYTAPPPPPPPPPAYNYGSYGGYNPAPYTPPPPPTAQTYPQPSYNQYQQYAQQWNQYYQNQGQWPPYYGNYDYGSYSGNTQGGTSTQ
UniProt Q53FT3: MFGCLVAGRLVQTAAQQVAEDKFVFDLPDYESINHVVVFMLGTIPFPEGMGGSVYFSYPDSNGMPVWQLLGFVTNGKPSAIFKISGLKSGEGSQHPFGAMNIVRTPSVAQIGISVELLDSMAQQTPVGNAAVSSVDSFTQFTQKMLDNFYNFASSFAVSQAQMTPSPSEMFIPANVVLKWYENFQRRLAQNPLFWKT
UniProt Q86YM7: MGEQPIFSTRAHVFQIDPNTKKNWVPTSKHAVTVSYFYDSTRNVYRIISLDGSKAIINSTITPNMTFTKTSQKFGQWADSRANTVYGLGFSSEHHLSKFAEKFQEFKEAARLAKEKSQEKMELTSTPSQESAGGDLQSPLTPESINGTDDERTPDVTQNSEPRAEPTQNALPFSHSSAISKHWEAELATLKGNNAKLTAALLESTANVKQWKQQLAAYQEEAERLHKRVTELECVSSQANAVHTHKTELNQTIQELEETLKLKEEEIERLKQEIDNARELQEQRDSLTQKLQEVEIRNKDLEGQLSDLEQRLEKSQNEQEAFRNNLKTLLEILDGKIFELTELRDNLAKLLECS
UniProt Q86VS8: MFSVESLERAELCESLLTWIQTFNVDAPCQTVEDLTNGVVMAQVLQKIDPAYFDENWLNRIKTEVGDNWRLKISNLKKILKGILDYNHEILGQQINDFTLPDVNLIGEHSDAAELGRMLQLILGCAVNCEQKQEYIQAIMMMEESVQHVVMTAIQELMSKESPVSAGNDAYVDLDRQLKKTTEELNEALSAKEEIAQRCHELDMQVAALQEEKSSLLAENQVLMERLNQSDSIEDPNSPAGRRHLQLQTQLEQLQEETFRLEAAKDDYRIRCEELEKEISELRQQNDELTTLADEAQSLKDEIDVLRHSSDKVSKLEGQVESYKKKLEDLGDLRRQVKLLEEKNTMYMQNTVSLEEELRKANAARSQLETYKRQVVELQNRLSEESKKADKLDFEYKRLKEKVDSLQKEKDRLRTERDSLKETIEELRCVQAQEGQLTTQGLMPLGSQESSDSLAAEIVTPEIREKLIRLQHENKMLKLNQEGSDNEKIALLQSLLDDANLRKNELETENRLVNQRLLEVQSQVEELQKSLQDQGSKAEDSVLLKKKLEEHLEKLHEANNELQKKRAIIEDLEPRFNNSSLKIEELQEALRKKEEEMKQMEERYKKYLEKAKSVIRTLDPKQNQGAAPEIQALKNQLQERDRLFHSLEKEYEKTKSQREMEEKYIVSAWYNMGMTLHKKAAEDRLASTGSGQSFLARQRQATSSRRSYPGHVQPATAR
UniProt Q58FF7, whole entry, looked up: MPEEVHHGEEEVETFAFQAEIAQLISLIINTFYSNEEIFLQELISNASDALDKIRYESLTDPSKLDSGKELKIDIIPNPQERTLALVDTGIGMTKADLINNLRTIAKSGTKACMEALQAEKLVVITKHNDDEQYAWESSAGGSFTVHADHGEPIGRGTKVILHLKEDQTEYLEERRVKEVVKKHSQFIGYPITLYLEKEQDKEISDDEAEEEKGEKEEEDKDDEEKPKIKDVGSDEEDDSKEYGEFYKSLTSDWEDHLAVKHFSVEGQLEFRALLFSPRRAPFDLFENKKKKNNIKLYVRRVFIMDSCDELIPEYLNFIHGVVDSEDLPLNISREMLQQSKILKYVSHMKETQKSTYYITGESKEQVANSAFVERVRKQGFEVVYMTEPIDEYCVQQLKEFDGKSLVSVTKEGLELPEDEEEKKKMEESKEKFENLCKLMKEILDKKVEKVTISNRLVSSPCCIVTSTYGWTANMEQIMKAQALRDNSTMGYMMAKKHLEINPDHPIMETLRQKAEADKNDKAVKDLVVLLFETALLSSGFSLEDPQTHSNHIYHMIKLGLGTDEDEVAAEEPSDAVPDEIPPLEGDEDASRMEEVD
UniProt Q9NP66: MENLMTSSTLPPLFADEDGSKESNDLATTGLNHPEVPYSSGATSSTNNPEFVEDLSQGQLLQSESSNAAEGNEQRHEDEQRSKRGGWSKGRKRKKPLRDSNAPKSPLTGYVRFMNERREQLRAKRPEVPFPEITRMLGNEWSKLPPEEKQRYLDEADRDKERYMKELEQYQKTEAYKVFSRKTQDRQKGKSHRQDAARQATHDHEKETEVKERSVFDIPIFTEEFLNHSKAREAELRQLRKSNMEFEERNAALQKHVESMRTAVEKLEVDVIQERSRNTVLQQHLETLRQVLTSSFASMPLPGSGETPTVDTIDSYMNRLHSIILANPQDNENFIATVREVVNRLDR

volasertib = compound: CC[C@@H]1C(=O)N(C)c2cnc(Nc3ccc(C(=O)N[C@H]4CC[C@H](N5CCN(CC6CC6)CC5)CC4)cc3OC)nc2N1C(C)C [volasertib]
How it was run: as §1

[2] = compound: CC[C@H](C)N1C=C(C2=C(C=C(C=C21)C3=CN=C(C=C3)N4CCNCC4)C(=O)NCC5=C(C=C(NC5=O)C)C)C
How it was run: as §1

epoxomicin = compound: CC[C@H](C)[C@@H](C(=O)N[C@@H]([C@@H](C)O)C(=O)N[C@@H](CC(C)C)C(=O)[C@]1(CO1)C)NC(=O)[C@H]([C@@H](C)CC)N(C)C(=O)C [epoxomicin]
How it was run: as §1

[3] = compound: CCn1c(C(=O)N(C2CC2)C2CC2)cc2c3c(ncn3C)c(Nc3cc(C)n(C)n3)nc21
How it was run: as §1

rosiglitazone = compound: CN(CCOC1=CC=C(C=C1)C[C@H]2C(=O)NC(=O)S2)C3=CC=CC=N3 (racemic) [rosiglitazone]
How it was run: as §1

[4] = compound: CN1C2=C(C3=C1C(=O)N(N=C3)CC4=CC(=CC=C4)N)SC(=C2)S(=O)C
How it was run: as §1

[5] = compound: CCn1cc(-c2ccnc3[nH]c(-c4cccc(CN(C)C)c4)cc23)c(-c2ccc(NC(=O)N(C)C)cc2)n1
How it was run: as §1

[6] = compound: CN(C)CC(=O)Nc1ccc2[nH]c(=O)c3ccccc3c2c1
How it was run: as §1

[7] = compound: CN1CCC(CNc2ccc3ncc(-c4cccc(OC(F)(F)F)c4)n3n2)CC1
How it was run: as §1

Target | log2 fold change [1] | log2 fold change (volasertib) | log2 fold change [2] | log2 fold change (epoxomicin) | log2 fold change [3] | log2 fold change (rosiglitazone) | log2 fold change [4] | log2 fold change [5] | log2 fold change [6] | log2 fold change [7]
HMCES (UniProt Q96FZ2) | inactive: -0.096 | inactive: 0.009 | inactive: 0.032 | inactive: 0.213 | inactive: -0.1 | inactive: 0.157 | inactive: -0.107 | – | – | –
HMOX2 (UniProt P30519) | inactive: -0.015 | active: -0.251 | inactive: 0.074 | inactive: 0.009 | – | – | inactive: 0.011 | inactive: -0.069 | inactive: 0.008 | inactive: 0.054
HSPH1 (UniProt Q92598) | inactive: -0.126 | inactive: -0.215 | inactive: 0.037 | inactive: 0.04 | inactive: 0.009 | inactive: 0.013 | inactive: -0.035 | inactive: -0.008 | inactive: 0.014 | inactive: -0.016
HNRNPH2 (UniProt P55795) | inactive: -0.119 | active: -0.667 | inactive: 0.073 | inactive: -0.004 | – | – | inactive: 0.087 | inactive: 0 | inactive: 0.069 | inactive: -0.06
HKDC1 (UniProt Q2TB90) | inactive: -0.034 | inactive: -0.211 | inactive: -0.011 | inactive: 0.005 | inactive: -0.023 | inactive: 0.051 | inactive: 0.004 | inactive: 0.044 | inactive: 0.047 | inactive: 0.026
HIRIP3 (UniProt Q9BW71) | inactive: -0.036 | inactive: -0.044 | inactive: 0.038 | inactive: 0.032 | inactive: -0.001 | inactive: 0 | inactive: -0.041 | inactive: -0.018 | inactive: 0.003 | inactive: -0.056
HPRT1 (UniProt P00492) | inactive: 0.014 | inactive: 0.063 | inactive: -0.016 | inactive: 0.016 | inactive: -0.03 | inactive: 0.004 | inactive: -0.034 | inactive: -0.038 | inactive: 0.001 | inactive: 0.015
HNRNPUL1 (UniProt Q9BUJ2) | inactive: 0.051 | inactive: -0.069 | inactive: 0.014 | inactive: 0.019 | – | – | inactive: 0.099 | inactive: 0.004 | inactive: 0.013 | inactive: 0.031
HIST2H3A (UniProt Q71DI3) | inactive: -0.206 | inactive: 0.111 | inactive: -0.023 | inactive: -0.003 | – | – | inactive: 0.56 | inactive: 0.315 | inactive: -0.124 | inactive: 0.09
HIKESHI (UniProt Q53FT3) | inactive: -0.116 | inactive: -0.178 | inactive: 0.022 | inactive: -0.013 | – | – | inactive: -0.018 | inactive: 0.001 | inactive: 0.008 | inactive: 0.077
HOMER1 (UniProt Q86YM7) | inactive: -0.018 | inactive: 0.024 | inactive: -0.099 | inactive: 0.006 | – | – | inactive: -0.018 | inactive: -0.025 | inactive: 0.018 | inactive: 0.033
HOOK3 (UniProt Q86VS8) | inactive: -0.151 | active: -0.395 | inactive: 0.034 | inactive: 0.004 | – | – | inactive: 0.031 | inactive: -0.017 | inactive: 0.005 | active: -0.358
HSP90AB3P (UniProt Q58FF7) | inactive: -0.174 | inactive: -0.158 | inactive: 0.071 | – | inactive: 0.086 | inactive: 0.097 | inactive: -0.055 | inactive: -0.005 | – | inactive: -0.13
HMG20A (UniProt Q9NP66) | inactive: 0.083 | inactive: -0.155 | inactive: 0.029 | inactive: -0.107 | – | – | inactive: 0.143 | inactive: 0 | inactive: 0.053 | inactive: -0.003
HMGN2 (UniProt P05204) | inactive: -0.083 | inactive: 0.073 | inactive: -0.109 | inactive: -0.082 | – | – | inactive: 0.02 | inactive: -0.041 | inactive: -0.081 | inactive: 0.071

Reprinted at random: two records from the list.
Target | log2 fold change [1] | log2 fold change (volasertib) | log2 fold change [2] | log2 fold change (epoxomicin) | log2 fold change [3] | log2 fold change (rosiglitazone) | log2 fold change [4] | log2 fold change [5] | log2 fold change [6] | log2 fold change [7]
HMOX2 (UniProt P30519) | inactive: -0.015 | active: -0.251 | inactive: 0.074 | inactive: 0.009 | – | – | inactive: 0.011 | inactive: -0.069 | inactive: 0.008 | inactive: 0.054
HMGN2 (UniProt P05204) | inactive: -0.083 | inactive: 0.073 | inactive: -0.109 | inactive: -0.082 | – | – | inactive: 0.02 | inactive: -0.041 | inactive: -0.081 | inactive: 0.071

— the supplement of paper PMC10849652
